Source: PubChem BioAssay AID504774 (Drosophila RNAi Screening Center, 2011)

Aim: 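Genes required for cells to withstand methyl methanesulphonate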 (primary screen)
Cells: Drosophila Kc167 cells
Knock-down reagent: long dsRNA against Drosophila genes, about 0.25 µg dsRNA per well
Timing: about 6 days: 3 days knock-down, then 3 days with or without MMS
Conditions: methyl methanesulphonate 0.004% (w/v) for 3 days after knock-down
Measured: 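Viability in wells given MMS, read as ATP luminescence, normalised by quantiles plate by plate and averaged across replicates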
Scale: mean viability with MMS and viability with MMS: higher = more surviving cells after MMS
In all, the deposit lists about 23,000 reagents; this is a random part of those that have a named target and a result. 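Values are quantile-normalised luminescence on an arbitrary scale; higher means more cells surviving MMS.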 A plus sign joins genes that one reagent is predicted to hit.

The opening 2 entries, ahead of the listing:
| mean viability with MMS | viability with MMS, replicate 1 | viability with MMS, replicate 2 | Gene | PubChem SID |
| --- | --- | --- | --- | --- |
| 3.68e6 | 4.14e6 | 4.10e6 | CAH7 (Carbonic anhydrase 7) | SID104195316 |
| 3.51e6 | 3.88e6 | 4.07e6 | INPP5E (Inositol polyphosphate 5-phosphatase E) | SID104189515 |

The list itself, repeating the preview:
| mean viability with MMS | viability with MMS, replicate 1 | viability with MMS, replicate 2 | Gene | PubChem SID |
| --- | --- | --- | --- | --- |
| 3.68e6 | 4.14e6 | 4.10e6 | CAH7 (Carbonic anhydrase 7) | SID104195316 |
| 3.51e6 | 3.88e6 | 4.07e6 | INPP5E (Inositol polyphosphate 5-phosphatase E) | SID104189515 |
| 3.52e6 | 3.78e6 | 3.71e6 | side-V (sidestep V) | SID104183980 |
| 2.02e6 | 4.25e6 | – | side-V (sidestep V) | SID104183981 |
| 3.37e6 | 3.92e6 | 3.84e6 | side-V (sidestep V) | SID104201787 |
| 3.65e6 | 3.90e6 | 4.33e6 | Nlg3 (Neuroligin 3) | SID104192269 |
| 3.55e6 | 3.99e6 | 4.07e6 | Nlg3 (Neuroligin 3) | SID104192316 |
| 3.46e6 | 3.92e6 | 3.95e6 | Nlg3 (Neuroligin 3) | SID104192332 |
| 3.35e6 | 3.85e6 | 3.79e6 | Nlg3 (Neuroligin 3) | SID104192366 |
| 3.28e6 | 3.76e6 | 3.75e6 | TfIIEalpha (Transcription factor IIEalpha) | SID104191095 |
| 3.32e6 | 3.86e6 | 3.74e6 | Snmp1 (Sensory neuron membrane protein 1) | SID104195960 |
| 3.51e6 | 4.06e6 | 3.91e6 | eloF (elongase F) | SID104194954 |
| 3.54e6 | 3.97e6 | 4.05e6 | ex (expanded) | SID104180609 |
| 3.60e6 | 4.09e6 | 4.08e6 | CG44836 | SID104189707 |
| 3.43e6 | 3.90e6 | 3.96e6 | CG30034 (retired record) | SID104185080 |
| 3.38e6 | 3.96e6 | 3.75e6 | CG5346 | SID104195570 |
| 3.29e6 | 3.64e6 | 3.74e6 | RpS27A (Ribosomal protein S27A) | SID104183213 |
| 2.89e6 | 3.60e6 | 3.59e6 | mim (missing-in-metastasis) | SID104184805 |
| 3.54e6 | 4.05e6 | 4.00e6 | mim (missing-in-metastasis) | SID104202402 |
| 3.00e6 | 3.62e6 | 3.54e6 | fzy (fizzy) | SID104183326 |
| 3.40e6 | 3.86e6 | 3.77e6 | Oli (Olig family) | SID104182658 |
| 3.30e6 | 3.75e6 | 3.63e6 | CG34327 | SID104199309 |
| 3.49e6 | 3.83e6 | 4.10e6 | CG34327 | SID104201860 |
| 3.56e6 | 4.03e6 | 4.03e6 | CG17260 | SID104180289 |
| 3.66e6 | 4.11e6 | 4.15e6 | inaF-A | SID104199452 |
| 3.62e6 | 4.15e6 | 4.01e6 | CG10749 | SID104189590 |
| 3.49e6 | 3.95e6 | 3.97e6 | CG31122 | SID104194579 |
| 3.56e6 | 4.04e6 | 4.03e6 | CG31122 | SID104196078 |
| 3.53e6 | 3.95e6 | 4.11e6 | CG15597 | SID104192075 |
| 3.59e6 | 4.05e6 | 4.10e6 | Mlc1 (Myosin alkali light chain 1) | SID104196532 |
| 3.55e6 | 4.07e6 | 3.97e6 | CG5126 | SID104180472 |
| 3.52e6 | 4.07e6 | 3.93e6 | CG7294 | SID104182833 |
| 3.25e6 | 3.72e6 | 3.74e6 | CG2162 | SID104188349 |
| 3.74e6 | 4.11e6 | 4.39e6 | dpr2 (defective proboscis extension response 2) | SID104182162 |
| 3.69e6 | 4.05e6 | 4.29e6 | dpr2 (defective proboscis extension response 2) | SID104182163 |
| 3.72e6 | 4.28e6 | 4.20e6 | Piezo | SID104182884 |
| 3.67e6 | 4.09e6 | 4.23e6 | kri (krishah) | SID104190307 |
| 3.57e6 | 3.98e6 | 4.13e6 | PH4alphaNE3 (prolyl-4-hydroxylase-alpha NE3) | SID104196333 |
| 3.53e6 | 4.09e6 | 3.92e6 | CG9114 | SID104199947 |
| 3.49e6 | 3.98e6 | 3.90e6 | Dgkepsilon (Diacyl glycerol kinase epsilon) | SID104187191 |
| 3.67e6 | 4.36e6 | 3.96e6 | CG14062 | SID104194517 |
| 3.79e6 | 4.01e6 | 4.11e6 | CG13160 | SID104186076 |
| 3.37e6 | 3.69e6 | 3.86e6 | CG34129 | SID104195752 |
| 3.52e6 | 3.97e6 | 4.00e6 | Hers (Histone gene-specific Epigenetic Repressor in late S phase) | SID104199221 |
| 3.67e6 | 4.16e6 | 4.10e6 | Hers (Histone gene-specific Epigenetic Repressor in late S phase) | SID104199468 |
| 3.52e6 | 4.00e6 | 3.98e6 | CG30291 | SID104183634 |
| 3.65e6 | 4.14e6 | 4.14e6 | TwdlH (TweedleH) | SID104194527 |
| 3.80e6 | 4.23e6 | 4.25e6 | Spn77Bb + Spn77Bc | SID104190481 |
| 3.69e6 | 4.15e6 | 4.14e6 | Spn77Bb + Spn77Bc | SID104191585 |
| 3.68e6 | 4.16e6 | 4.19e6 | zpg (zero population growth) | SID104189494 |
| 3.52e6 | 4.04e6 | 3.96e6 | Orct2 (Organic cation transporter 2) | SID104194405 |
| 3.55e6 | 4.10e6 | 3.95e6 | Strump (Strumpellin) | SID104189664 |
| 3.73e6 | 4.03e6 | 4.30e6 | fsd (fates-shifted) | SID104185958 |
| 3.53e6 | 4.05e6 | 3.97e6 | Cbs (Cystathionine beta-synthase) | SID104200345 |
| 3.37e6 | 3.80e6 | 3.78e6 | ND-24L (NADH dehydrogenase (ubiquinone) 24 kDa subunit-like) | SID104190442 |
| 3.60e6 | 4.05e6 | 4.10e6 | CG34115 | SID104183632 |
| 3.67e6 | 4.27e6 | 4.05e6 | CCDC53 (Coiled-coil domain containing 53) | SID104182848 |
| 3.53e6 | 4.06e6 | 3.94e6 | CG32834 | SID104201549 |
| 3.60e6 | 4.04e6 | 4.12e6 | CG8401 | SID104186957 |
| 3.58e6 | 4.12e6 | 3.98e6 | CG34203 | SID104183647 |
| 3.52e6 | 4.02e6 | 3.98e6 | MAGE | SID104192296 |
| 3.53e6 | 4.06e6 | 3.94e6 | CG14556 | SID104194691 |
| 3.51e6 | 4.07e6 | 3.88e6 | CG9101 | SID104199944 |
| 3.60e6 | 4.15e6 | 4.08e6 | CG9287 | SID104182978 |
| 3.35e6 | 3.92e6 | 3.81e6 | CG9287 | SID104202149 |
| 3.54e6 | 3.93e6 | 4.11e6 | Cyp4s3 (Cytochrome P450 4s3) | SID104200033 |
| 3.46e6 | 3.95e6 | 3.93e6 | Cyp4s3 (Cytochrome P450 4s3) | SID104201835 |
| 3.69e6 | 4.18e6 | 4.09e6 | CG33003 | SID104201892 |
